Results taken from ChEMBL document CHEMBL1156762, “Deciphering the mechanism of carbonic anhydrase inhibition with coumarins and thiocoumarins” (J Med Chem, 2010).

The chains behind the UniProt entries cited, without tags or fusion partners. Where a name states a change or a piece, a line headed by the entry shows the natural chain unless it says otherwise.
UniProt P07451: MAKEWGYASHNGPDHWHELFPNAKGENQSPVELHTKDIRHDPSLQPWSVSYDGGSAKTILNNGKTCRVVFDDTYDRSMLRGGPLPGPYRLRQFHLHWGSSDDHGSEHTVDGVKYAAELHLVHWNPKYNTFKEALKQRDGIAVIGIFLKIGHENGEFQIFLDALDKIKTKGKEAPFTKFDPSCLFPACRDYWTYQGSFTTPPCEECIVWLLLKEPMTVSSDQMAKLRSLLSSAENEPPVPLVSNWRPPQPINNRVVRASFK
UniProt O43570: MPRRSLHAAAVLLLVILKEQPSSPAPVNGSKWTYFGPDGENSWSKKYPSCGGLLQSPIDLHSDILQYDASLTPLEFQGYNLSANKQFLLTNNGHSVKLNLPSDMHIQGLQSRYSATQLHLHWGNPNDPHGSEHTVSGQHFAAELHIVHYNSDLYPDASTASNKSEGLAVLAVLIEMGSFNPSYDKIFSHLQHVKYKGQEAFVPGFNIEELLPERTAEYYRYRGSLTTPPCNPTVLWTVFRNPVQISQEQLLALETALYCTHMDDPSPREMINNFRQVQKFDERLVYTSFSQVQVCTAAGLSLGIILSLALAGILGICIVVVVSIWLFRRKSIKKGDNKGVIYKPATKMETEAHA

Assays:
[1] = molecular target: Carbonic anhydrase 3 (Homo sapiens, UniProt P07451)
[2] = molecular target: Carbonic anhydrase 12 (Homo sapiens, UniProt O43570)

## O=c1ccc2ccc(OCc3ccccc3)cc2o1 [7-BENZYLOXYCOUMARIN]
[1]
  Ki: 8.1 µM
[2]
  Ki: 6.5 µM
